Test results as given in the supplement of paper PMC7661543.
The effect of the compound repeats well; differences between the knockouts mostly do not.

System: MDA-MB-231
Test: relative cell number vs DMSO control (72 h) (% of DMSO); higher = less growth inhibition (more cells)
Procedure: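 QMAP-Seq: a pool of 5 breast cancer cell lines (ZR-75-1, SKBR3, HCC-38, MDA-MB-231, BT-20), each carrying 12 doxycycline-inducible Cas9 sgRNA perturbations (11 knockouts plus non-targeting sgNT), was treated with compounds for 72 h at four 10-fold doses (10 nM-10 uM or 1 nM-1 uM range). Barcodes were amplified and sequenced, and cell number was interpolated from 293T spike-in standard curves. The result is expressed as % of the median of DMSO wells. Two biological replicates.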

COc1cc2nccc(Oc3ccc(NC(=O)C4(C(=O)Nc5ccc(F)cc5)CC4)cc3)c2cc1OC [Cabozantinib]
Details	relative cell number
sgRNA knockout: sgATF3, 10 nM	102
sgRNA knockout: sgATF3, 100 nM	117
sgRNA knockout: sgATF3, 1000 nM	113
sgRNA knockout: sgATF3, 10000 nM	37.3
sgRNA knockout: sgATF4, 10 nM	148
sgRNA knockout: sgATF4, 100 nM	91.9
sgRNA knockout: sgATF4, 1000 nM	83.6
sgRNA knockout: sgATF4, 10000 nM	44.2
sgRNA knockout: sgATF6, 10 nM	103
sgRNA knockout: sgATF6, 100 nM	94.8
sgRNA knockout: sgATF6, 1000 nM	113
sgRNA knockout: sgATF6, 10000 nM	30.7
sgRNA knockout: sgATG7, 10 nM	91.8
sgRNA knockout: sgATG7, 100 nM	81.1
sgRNA knockout: sgATG7, 1000 nM	101
sgRNA knockout: sgATG7, 10000 nM	26.6
sgRNA knockout: sgERN1, 10 nM	108
sgRNA knockout: sgERN1, 100 nM	106
sgRNA knockout: sgERN1, 1000 nM	97.51
sgRNA knockout: sgERN1, 10000 nM	37.2
sgRNA knockout: sgHSF1, 10 nM	98.4
sgRNA knockout: sgHSF1, 100 nM	122
sgRNA knockout: sgHSF1, 1000 nM	102
sgRNA knockout: sgHSF1, 10000 nM	42
sgRNA knockout: sgHSF2, 10 nM	82.7
sgRNA knockout: sgHSF2, 100 nM	125
sgRNA knockout: sgHSF2, 1000 nM	119
sgRNA knockout: sgHSF2, 10000 nM	40
sgRNA knockout: sgKEAP1, 10 nM	82.7
sgRNA knockout: sgKEAP1, 100 nM	93.3
sgRNA knockout: sgKEAP1, 1000 nM	80.5
sgRNA knockout: sgKEAP1, 10000 nM	40.5
sgRNA knockout: sgNFE2L2, 10 nM	92.1
sgRNA knockout: sgNFE2L2, 100 nM	90.2
sgRNA knockout: sgNFE2L2, 1000 nM	110
sgRNA knockout: sgNFE2L2, 10000 nM	31.8
sgRNA knockout: sgSLC35F2, 10 nM	97
sgRNA knockout: sgSLC35F2, 100 nM	93.9
sgRNA knockout: sgSLC35F2, 1000 nM	90.3
sgRNA knockout: sgSLC35F2, 10000 nM	38.7
sgRNA knockout: sgXBP1, 10 nM	107
sgRNA knockout: sgXBP1, 100 nM	75.9
sgRNA knockout: sgXBP1, 1000 nM	103
sgRNA knockout: sgXBP1, 10000 nM	37.2

CC(C)C[C@H](NC(=O)[C@H](CCc1ccccc1)NC(=O)CN1CCOCC1)C(=O)N[C@@H](Cc1ccccc1)C(=O)N[C@@H](CC(C)C)C(=O)[C@@]1(C)CO1 [Carfilzomib]
Details	relative cell number
sgRNA knockout: sgATF3, 1 nM	74.8
sgRNA knockout: sgATF3, 10 nM	71
sgRNA knockout: sgATF3, 100 nM	15.8
sgRNA knockout: sgATF3, 1000 nM	7.54
sgRNA knockout: sgATF4, 1 nM	57.6
sgRNA knockout: sgATF4, 10 nM	44.9
sgRNA knockout: sgATF4, 100 nM	16.9
sgRNA knockout: sgATF4, 1000 nM	8.68
sgRNA knockout: sgATF6, 1 nM	101
sgRNA knockout: sgATF6, 10 nM	73.4
sgRNA knockout: sgATF6, 100 nM	18.2
sgRNA knockout: sgATF6, 1000 nM	5.68
sgRNA knockout: sgATG7, 1 nM	108
sgRNA knockout: sgATG7, 10 nM	52.6
sgRNA knockout: sgATG7, 100 nM	10.5
sgRNA knockout: sgATG7, 1000 nM	9.24
sgRNA knockout: sgERN1, 1 nM	83
sgRNA knockout: sgERN1, 10 nM	58.4
sgRNA knockout: sgERN1, 100 nM	13.2
sgRNA knockout: sgERN1, 1000 nM	5.84
sgRNA knockout: sgHSF1, 1 nM	68.6
sgRNA knockout: sgHSF1, 10 nM	47.9
sgRNA knockout: sgHSF1, 100 nM	14.4
sgRNA knockout: sgHSF1, 1000 nM	5.92
sgRNA knockout: sgHSF2, 1 nM	78.5
sgRNA knockout: sgHSF2, 10 nM	43.2
sgRNA knockout: sgHSF2, 100 nM	12.4
sgRNA knockout: sgHSF2, 1000 nM	6.5
sgRNA knockout: sgKEAP1, 1 nM	73.6
sgRNA knockout: sgKEAP1, 10 nM	67.4
sgRNA knockout: sgKEAP1, 100 nM	16.4
sgRNA knockout: sgKEAP1, 1000 nM	8.63
sgRNA knockout: sgNFE2L2, 1 nM	77.4
sgRNA knockout: sgNFE2L2, 10 nM	45.7
sgRNA knockout: sgNFE2L2, 100 nM	12
sgRNA knockout: sgNFE2L2, 1000 nM	6.44
sgRNA knockout: sgSLC35F2, 1 nM	74.8
sgRNA knockout: sgSLC35F2, 10 nM	55.9
sgRNA knockout: sgSLC35F2, 100 nM	25.3
sgRNA knockout: sgSLC35F2, 1000 nM	18.7
sgRNA knockout: sgXBP1, 1 nM	90.7
sgRNA knockout: sgXBP1, 10 nM	56.6
sgRNA knockout: sgXBP1, 100 nM	11
sgRNA knockout: sgXBP1, 1000 nM	5.85

N.N.[Cl][Pt][Cl] [Cisplatin]
Details	relative cell number
sgRNA knockout: sgATF3, 10 nM	97.6
sgRNA knockout: sgATF3, 100 nM	81.5
sgRNA knockout: sgATF3, 1000 nM	114
sgRNA knockout: sgATF3, 10000 nM	111.9
sgRNA knockout: sgATF4, 10 nM	118
sgRNA knockout: sgATF4, 100 nM	67
sgRNA knockout: sgATF4, 1000 nM	103
sgRNA knockout: sgATF4, 10000 nM	138
sgRNA knockout: sgATF6, 10 nM	118.9
sgRNA knockout: sgATF6, 100 nM	86.1
sgRNA knockout: sgATF6, 1000 nM	106
sgRNA knockout: sgATF6, 10000 nM	87.4
sgRNA knockout: sgATG7, 10 nM	106
sgRNA knockout: sgATG7, 100 nM	89.5
sgRNA knockout: sgATG7, 1000 nM	117
sgRNA knockout: sgATG7, 10000 nM	84.4
sgRNA knockout: sgERN1, 10 nM	105
sgRNA knockout: sgERN1, 100 nM	86
sgRNA knockout: sgERN1, 1000 nM	147
sgRNA knockout: sgERN1, 10000 nM	94
sgRNA knockout: sgHSF1, 10 nM	85.3
sgRNA knockout: sgHSF1, 100 nM	79.7
sgRNA knockout: sgHSF1, 1000 nM	113
sgRNA knockout: sgHSF1, 10000 nM	85
sgRNA knockout: sgHSF2, 10 nM	101
sgRNA knockout: sgHSF2, 100 nM	81.5
sgRNA knockout: sgHSF2, 1000 nM	105
sgRNA knockout: sgHSF2, 10000 nM	122
sgRNA knockout: sgKEAP1, 10 nM	105
sgRNA knockout: sgKEAP1, 100 nM	93.4
sgRNA knockout: sgKEAP1, 1000 nM	113
sgRNA knockout: sgKEAP1, 10000 nM	101
sgRNA knockout: sgNFE2L2, 10 nM	105
sgRNA knockout: sgNFE2L2, 100 nM	73.9
sgRNA knockout: sgNFE2L2, 1000 nM	98.1
sgRNA knockout: sgNFE2L2, 10000 nM	108
sgRNA knockout: sgSLC35F2, 10 nM	89.7
sgRNA knockout: sgSLC35F2, 100 nM	83.4
sgRNA knockout: sgSLC35F2, 1000 nM	95.91
sgRNA knockout: sgSLC35F2, 10000 nM	82.2
sgRNA knockout: sgXBP1, 10 nM	113
sgRNA knockout: sgXBP1, 100 nM	85.57
sgRNA knockout: sgXBP1, 1000 nM	99.5
sgRNA knockout: sgXBP1, 10000 nM	83.7
